We go through 31 compounds from the supplement of paper PMC12889115.

For this assay, the system named is Salmonella enterica serovar Typhimurium SL1344. Description: bacterial growth OD600 after 18 h with compound and polymyxin B; higher = more bacterial growth (less inhibition). The conditions noted are these: 50 µM, Mueller-Hinton broth.

Some of the results follow. Values are raw readings; no control value is given beside them.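 In the initial screen, polymyxin B was used at a concentration that permeabilizes Salmonella's outer membrane but not its inner membrane. Maximum growth was set by DMSO wells with or without polymyxin B. Since plates varied, data were ranked per plate, and compounds giving the lowest OD600 advanced as hits.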

In the case of `Cn1ccnc1C(=O)N1CCC2(CCCN(Cc3ccccc3F)C2)C1` (stereo unspecified), the “bacterial growth OD600” value (polymyxin B 1 µg/mL) is 0.759.
As for `COCCN1CC(C(=O)NCc2nc(C)c3c(n2)CCCC3)CCC1=O` (stereo unspecified), the “bacterial growth OD600” value (polymyxin B 1 µg/mL) was 0.846.
Turning to `COCc1ccc(CN2CCCC(C(=O)c3ccc(C(F)(F)F)cc3)C2)o1` (stereo unspecified), the “bacterial growth OD600” value (polymyxin B 1 µg/mL) came out at 0.811.
For the compound `CC(=O)C1CCCN(Cc2cnc(S(=O)(=O)CC(C)C)n2Cc2ccccc2)C1` (stereo unspecified), the “bacterial growth OD600” value (polymyxin B 1 µg/mL) was determined as 1.02.
Turning to `OCC1(CCOc2ccccc2)CCN(Cc2ccccc2C(F)(F)F)CC1`, the “bacterial growth OD600” value (polymyxin B 1 µg/mL) worked out at 0.76.
Consider `COc1ccc(OC)c(CN2CCOc3ccc(C(O)CCc4ccccc4)cc3C2)c1` (stereo unspecified), for which the “bacterial growth OD600” value (polymyxin B 0.75 µg/mL) was determined as 0.002.
On the same count and under the same terms, under `CCc1cc(C(=O)NCc2cc(NS(=O)(=O)c3ccc(F)cc3)cc(C(=O)OC)c2)n(C)n1` stands 0.851.
As to `C=CCO[C@H]1[C@H](NC(=O)CSC)c2ccccc2C12CCN(Cc1cccc(OC)c1)CC2`, the “bacterial growth OD600” value (polymyxin B 0.75 µg/mL) came to 0.813.
Turning to `c1ccc2sc(N3CCCC(NC4CCSCC4)C3)nc2c1` (stereo unspecified), under “polymyxin B 1 µg/mL”, the “bacterial growth OD600” value worked out at 0.871.
Consider `COc1cc(C(=O)NC2CCCCCCC2)ccc1OC1CCN(C(C)=O)CC1`, for which, where the note is “polymyxin B 1 µg/mL”, the “bacterial growth OD600” value turned out to be 0.884.
Same read-out and setting: the figure for `CCCCN(Cc1ccccc1)Cc1nc(-c2ccc(OC)cc2)no1` is 0.85.
With `COc1cc(CNC(C)c2cnn(-c3cccc(F)c3)c2C)cc(Cl)c1O` (stereo unspecified), the “bacterial growth OD600” value (polymyxin B 0.75 µg/mL) was 0.935.
For `CCc1nc(C)c(CN2CCC(Oc3ccc(C(=O)N4CCCC4)cc3)CC2)[nH]1`, the “bacterial growth OD600” value (polymyxin B 0.75 µg/mL) turned out to be 0.906.
Regarding `COCC1CCN(C(=O)c2cc(NC(=O)CC3CCCC3)cc3nc(C4CCCO4)n(C)c23)CC1` (stereo unspecified), the “bacterial growth OD600” value (polymyxin B 0.75 µg/mL) turned out to be 0.835.
`CSc1ccc(C(=O)N2CCC(C(Cc3ccccc3)N(C)C(=O)c3ccccn3)CC2)cc1` (stereo unspecified): the “bacterial growth OD600” value (polymyxin B 0.75 µg/mL) came to 0.715.
As for `O=C(c1cc(Cn2ccc3ccccc32)[nH]n1)N1CCCCC1CCO` (stereo unspecified), the “bacterial growth OD600” value (polymyxin B 1 µg/mL) is 0.881.
Consider `Cc1ncoc1C(=O)N1CCC(C2CCN(Cc3ccc(Cl)cc3)C2)CC1` (stereo unspecified), for which the “bacterial growth OD600” value (polymyxin B 0.75 µg/mL) came out at 1.
Take `CNS(=O)(=O)c1sc2c(c1C(=O)OC)CCN(C(=O)c1cccc(C)c1C)C2`: the “bacterial growth OD600” value (polymyxin B 0.75 µg/mL) stood at 0.817.
Regarding `CCC(O)C1CCN(C(=O)c2cc(COc3ccc(C(C)=O)cc3)on2)CC1` (stereo unspecified), the “bacterial growth OD600” value (polymyxin B 1 µg/mL) worked out at 0.923.
For `COC(=O)c1cc(CNC(=O)c2ccccc2)cc(NS(=O)(=O)c2cccc(C(F)(F)F)c2)c1`, the “bacterial growth OD600” value (polymyxin B 0.75 µg/mL) worked out at 0.715.
Regarding `CC(CNC(=O)c1cc(CN2CCOCC2)on1)c1ccccc1` (stereo unspecified), the “bacterial growth OD600” value (polymyxin B 1 µg/mL) came to 0.903.
The same measure, in the same setting: the figure for `Cc1c(-c2ccccc2F)[nH]c2ccc(CNC(=O)CCc3cnccn3)cc12` is 0.648.
As for `O=C(NCc1ccc(OC(F)(F)F)cc1)c1cc(CN2CCOCC2)on1`, the “bacterial growth OD600” value (polymyxin B 1 µg/mL) was 0.911.
For `O=C(Nc1nc2c(s1)C(=O)CC(C(=O)N1CCCC(c3ccccc3)C1)C2)c1ccsc1` (stereo unspecified), the “bacterial growth OD600” value (polymyxin B 0.75 µg/mL) is 0.002.
`CC(C)Cn1c(CN2CCCC2)cnc1S(=O)(=O)Cc1ccccc1`: the “bacterial growth OD600” value (polymyxin B 1 µg/mL) is 1.22.
For the compound `CC(C)(O)C#Cc1ccc(C(=O)N2Cc3ccccc3OC(c3ccccc3)C2)cc1` (stereo unspecified), for the setting “polymyxin B 0.75 µg/mL”, the “bacterial growth OD600” value was 0.002.
For the compound `COc1cccc(NC(=O)N(C)CC2CCCN(CCc3ccccc3C)C2)c1` (stereo unspecified), the “bacterial growth OD600” value (polymyxin B 1 µg/mL) is 1.01.
In the case of `CO[C@H]1[C@H](NC(=O)c2ccccn2)c2ccccc2C12CCN(C(=O)C1=C(C)OCCO1)CC2`, for the setting “polymyxin B 0.75 µg/mL”, the “bacterial growth OD600” value is 0.782.
For the compound `COc1ccccc1Oc1ncccc1CNS(=O)(=O)c1cccs1`, the “bacterial growth OD600” value (polymyxin B 1 µg/mL) amounted to 0.851.
For `CC(=O)c1ccc(C(=O)N2CCCC(Nc3cccc(F)c3)C2)cc1` (stereo unspecified), the “bacterial growth OD600” value (polymyxin B 1 µg/mL) was 0.882.
On to `COC(=O)[C@@H](NC1CCN(c2ccc(NC(=O)C3CCCC3)cc2)CC1)c1ccccc1`, for which, under “polymyxin B 0.75 µg/mL”, the “bacterial growth OD600” value was found to be 0.909.
